Among the data in article PMC3759425, “Insights into the Cross-Immunity Mechanism within Effector Families of Bacteria Type VI Secretion System from the Structure of StTae4-EcTai4 Complex” (PLoS ONE, 2013) are binding values, retold here.

No constants are given. Whether binding was seen depends on the method and setting. In cells and extracts the contact can be indirect. Some binding calls cover weakened binding; strength is not graded here.

The test has as its target His-StTai4 (type VI amidase immunity 4 from Salmonella typhimurium) (S. typhimurium) (UniProt Q8ZRL5). The test is described as follows: pull-down; His-tagged immunity protein on Ni beads, 277 K, 15 min; native effector proteins loaded; washed with 20 mM imidazole, eluted with 250 mM imidazole; SDS-PAGE, Coomassie blue.

Consider “EcTae4 (type VI amidase effector 4 from Enterobacter cloacae) (from UniProt A0A0H3CIJ2 1-163) (enzyme)”, for which the binding result is given as “binds”.
